Laboratory results published in PMC6805688.
These are yes or no findings as the source states them, for the method shown. In cells and extracts the contact can be indirect. Some results given as binding are weak or reduced against the parent protein; the word gives no strength.

Sequences of proteins named here, by UniProt entry; tags and fusion partners are left off.
UniProt P63101: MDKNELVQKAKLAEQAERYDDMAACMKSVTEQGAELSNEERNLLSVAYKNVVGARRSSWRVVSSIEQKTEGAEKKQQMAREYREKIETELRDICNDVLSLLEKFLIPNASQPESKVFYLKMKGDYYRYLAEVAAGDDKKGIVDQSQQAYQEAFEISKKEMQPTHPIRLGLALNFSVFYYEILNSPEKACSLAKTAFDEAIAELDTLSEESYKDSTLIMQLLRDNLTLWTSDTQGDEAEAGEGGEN
UniProt P62259: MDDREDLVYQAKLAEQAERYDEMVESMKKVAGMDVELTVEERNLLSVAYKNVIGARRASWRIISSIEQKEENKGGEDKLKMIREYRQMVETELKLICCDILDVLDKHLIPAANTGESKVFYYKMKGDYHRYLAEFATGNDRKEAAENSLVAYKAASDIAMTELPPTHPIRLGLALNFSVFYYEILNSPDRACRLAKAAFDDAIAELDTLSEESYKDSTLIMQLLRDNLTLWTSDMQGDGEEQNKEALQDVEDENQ

T1: CDC25B (cell division cycle 25B) (mouse (endogenous in oocytes and eggs)) (UniProt P30306)
T1 sequence: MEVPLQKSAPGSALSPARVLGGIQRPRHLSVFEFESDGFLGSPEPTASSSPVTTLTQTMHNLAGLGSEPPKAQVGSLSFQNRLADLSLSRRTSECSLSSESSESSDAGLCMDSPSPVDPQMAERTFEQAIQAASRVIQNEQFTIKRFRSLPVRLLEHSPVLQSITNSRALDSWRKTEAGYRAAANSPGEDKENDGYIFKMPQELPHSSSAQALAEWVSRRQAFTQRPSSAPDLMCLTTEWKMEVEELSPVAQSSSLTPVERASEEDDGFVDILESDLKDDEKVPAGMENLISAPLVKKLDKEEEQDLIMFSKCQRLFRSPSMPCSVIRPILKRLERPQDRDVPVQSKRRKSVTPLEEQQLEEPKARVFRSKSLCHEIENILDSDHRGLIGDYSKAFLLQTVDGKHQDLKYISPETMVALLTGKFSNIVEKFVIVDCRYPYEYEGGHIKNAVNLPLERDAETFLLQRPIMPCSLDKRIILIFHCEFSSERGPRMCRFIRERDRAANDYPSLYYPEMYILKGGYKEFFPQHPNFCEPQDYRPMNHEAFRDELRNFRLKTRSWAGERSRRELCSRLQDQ

B1: YWHAB (Tyrosine 3-Monooxygenase/Tryptophan 5-Monooxygenase Activation protein, Beta polypeptide) (protein, UniProt Q9CQV8-1 1-246)
chain: MTMDKSELVQKAKLAEQAERYDDMAAAMKAVTEQGHELSNEERNLLSVAYKNVVGARRSSWRVISSIEQKTERNEKKQQMGKEYREKIEAELQDICNDVLELLDKYLILNATQAESKVFYLKMKGDYFRYLSEVASGENKQTTVSNSQQAYQEAFEISKKEMQPTHPIRLGLALNFSVFYYEILNSPEKACSLAKTAFDEAIAELDTLNEESYKDSTLIMQLLRDNLTLWTSENQGDEGDAGEGEN
B2: YWHAH (Tyrosine 3-Monooxygenase/Tryptophan 5-Monooxygenase Activation protein, Eta polypeptide) (protein, UniProt P68510 1-246)
chain: MGDREQLLQRARLAEQAERYDDMASAMKAVTELNEPLSNEDRNLLSVAYKNVVGARRSSWRVISSIEQKTMADGNEKKLEKVKAYREKIEKELETVCNDVLALLDKFLIKNCNDFQYESKVFYLKMKGDYYRYLAEVASGEKKNSVVEASEAAYKEAFEISKEHMQPTHPIRLGLALNFSVFYYEIQNAPEQACLLAKQAFDDAIAELDTLNEDSYKDSTLIMQLLRDNLTLWTSDQQDEEAGEGN
B3: YWHAG (Tyrosine 3-Monooxygenase/Tryptophan 5-Monooxygenase Activation protein, Gamma polypeptide) (protein, UniProt P61982 1-247)
chain: MVDREQLVQKARLAEQAERYDDMAAAMKNVTELNEPLSNEERNLLSVAYKNVVGARRSSWRVISSIEQKTSADGNEKKIEMVRAYREKIEKELEAVCQDVLSLLDNYLIKNCSETQYESKVFYLKMKGDYYRYLAEVATGEKRATVVESSEKAYSEAHEISKEHMQPTHPIRLGLALNYSVFYYEIQNAPEQACHLAKTAFDDAIAELDTLNEDSYKDSTLIMQLLRDNLTLWTSDQQDDDGGEGNN
B4: YWHAQ (Tyrosine 3-Monooxygenase/Tryptophan 5-Monooxygenase Activation protein, Theta/Tau polypeptide) (protein, UniProt P68254-1 1-245)
chain: MEKTELIQKAKLAEQAERYDDMATCMKAVTEQGAELSNEERNLLSVAYKNVVGGRRSAWRVISSIEQKTDTSDKKLQLIKDYREKVESELRSICTTVLELLDKYLIANATNPESKVFYLKMKGDYFRYLAEVACGDDRKQTIENSQGAYQEAFDISKKEMQPTHPIRLGLALNFSVFYYEILNNPELACTLAKTAFDEAIAELDTLNEDSYKDSTLIMQLLRDNLTLWTSDSAGEECDAAEGAEN
B5: SFN (Stratifin) (protein, UniProt O70456 1-248)
chain: MERASLIQKAKLAEQAERYEDMAAFMKSAVEKGEELSCEERNLLSVAYKNVVGGQRAAWRVLSSIEQKSNEEGSEEKGPEVKEYREKVETELRGVCDTVLGLLDSHLIKGAGDAESRVFYLKMKGDYYRYLAEVATGDDKKRIIDSARSAYQEAMDISKKEMPPTNPIRLGLALNFSVFHYEIANSPEEAISLAKTTFDEAMADLHTLSEDSYKDSTLIMQLLRDNLTLWTADSAGEEGGEAPEEPQS

molecular target: T1, CDC25B (cell division cycle 25B) (mouse (endogenous in oocytes and eggs)); assay: proximity ligation; Duolink in situ PLA in fixed and permeabilized mouse oocytes and eggs; rabbit anti-14-3-3 isoform panel PAN017 and goat anti-CDC25B (sc-6948), each 1:200; confocal Z-stacks at 3 μm intervals

binding, binds:
YWHAZ (Tyrosine 3-Monooxygenase/Tryptophan 5-Monooxygenase Activation protein, Zeta polypeptide) (from UniProt P63101 1-245)
YWHAE (Tyrosine 3-Monooxygenase/Tryptophan 5-Monooxygenase Activation protein, Epsilon polypeptide) (from UniProt P62259 1-255)
B1
B2
B3
B4
B5
